Library compounds against nucleic acid targets

Source: the ROBIN nucleic acid binder screens (doi:10.1002/anie.202211358).

Targets (5′ to 3′):
TPP: TPP riboswitch RNA three-way junction, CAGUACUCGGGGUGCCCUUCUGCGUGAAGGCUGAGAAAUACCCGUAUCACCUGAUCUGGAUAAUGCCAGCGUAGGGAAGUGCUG. About 24,000 compounds screened, about 160 hits.
SAM-II: SAM-II riboswitch RNA pseudoknot, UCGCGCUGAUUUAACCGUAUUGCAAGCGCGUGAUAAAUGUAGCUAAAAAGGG. About 21,000 compounds screened, about 200 hits.
PreQ1: PreQ1 riboswitch RNA pseudoknot, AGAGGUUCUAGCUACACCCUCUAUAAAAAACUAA. From B. subtilis. About 24,000 compounds screened, about 170 hits.

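The test is a small-molecule microarray: each compound is printed twice on a reactive slide, and binding shows as fluorescence of the labelled oligonucleotide after washing. The data file lists only calls. An earlier report of the laboratory on the PreQ1, TPP and SAM-II riboswitches (doi:10.1038/s41467-019-09493-3) used 1 µM RNA for 2 h and required a mean Z-score above 3 (spot signal-to-noise against the whole library), a score well above that on a control array, and duplicate spots agreeing (coefficient of variation under 100); it then also set aside compounds that hit other targets, which this list keeps. The cut-offs behind this list may differ. These are primary screening calls, not affinities; a compound without a hit may have attached poorly or may still bind in solution.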
Key: hit = hit, none = tested without a hit.
Compounds were drawn at random from those tested, without regard to their results.
A target missing from an entry has no call listed here.
A dash means that no call is listed here.

SMILES	TPP	SAM-II	PreQ1
Cn1ccnc1CN1CCNC(C(=O)O)C1 (configuration not stated)	none	none	none
Nc1ccnc(N2CCC(n3nccc3NC(=O)CCc3ccccc3)CC2)n1	none	none	none
Nc1nonc1-n1nncc1-c1cccnc1	none	none	none
CC(C)N(CCNC(=O)CN1CCCC1=O)C(C)C	none	none	none
OCC1(CN[C@@H]2c3ccccc3C3(CCNCC3)[C@H]2O)CCOCC1	none	none	none
CCOC(=O)c1nc(Nc2ccc(C)cc2C)c2ccccc2n1	none	none	none
O=C(Cn1ccnc1-c1ccccc1)N1CCCC2(CCNCC2)CC1	none	none	none
CCOC(=O)Cc1csc2nc(-c3ccccc3)nn12	none	none	none
Cc1nc(O)cc(C2CCN(C(=O)CCc3csc(N)n3)CC2)n1	none	none	none
CNC(=O)Nc1ccc(-c2nc(N3CC4CCC(C3)O4)c3cnn(C4CCC5(CC4)OCCO5)c3n2)cc1	none	none	none
COc1cc(CO)ccc1OCc1ccc(Cl)cc1	none	none	none
O=C(NCCCO)C(=O)NC1CCCCC1	none	none	none
N#CC1(c2cccc(C(=O)Nc3cc(Oc4ccc5nc(NC(=O)C6CC6)sc5n4)ccc3F)c2Cl)CC1	none	none	none
Nc1n[nH]c2ncc3cc4ccccc4nc3c12	hit	none	none
CCCCNc1cc(C)nc(CCC)n1	none	-	none
Nc1nc(-c2ccc3ccccc3c2)cs1	none	none	none
CSCC(=O)N1CCC2(CCN(CC(N)=O)CC2CO)CC1 (configuration not stated)	none	none	none
COC(=O)[C@@H]1C[C@@H](O)CN1C(=O)CCn1c(C)cc2ccccc21	none	none	none
COc1ccc(CN2CCN(CC(O)Cn3c4ccccc4c4ccccc43)CC2)cc1 (configuration not stated)	none	none	none
CCc1ccccc1C(=O)N1CCNCC1C(=O)N1CCCC1 (configuration not stated)	none	none	none
CSc1ccc(OCCN)cc1	none	hit	none
CC1=CC(C)(C)N(C(=O)CSc2nnc(N)s2)c2c(C)cc(C)cc21	none	none	none
CCCCNC1=CC(=O)CC(C)(C)C1	none	none	none
Cc1cc(N(CCO)CCO)n2nc(-c3ccccc3C)nc2n1	none	-	none
CCCCN(CC)C(=O)c1oc2ccccc2c1N	none	-	none
CC(C)(C)NC(=O)COc1ccc(CN2CCC3(CC2)[C@H](O)C[C@@H]3O)cc1	none	none	none
Nc1nonc1-c1nc2ccccc2n1CC(=O)Nc1ccccc1C(F)(F)F	none	none	none
Cn1c(-c2ccc(F)cc2)cnc1NCc1ccccc1Cl	none	none	none
OC1(CNCCc2nc(-c3ccccc3)cs2)CNCCOC1 (configuration not stated)	none	none	none
COc1ccc(OC)c(NC2c3ccccc3C(=O)N2c2ccccc2C)c1 (configuration not stated)	none	none	none
CCCC(=O)Nc1cccc(C(=O)NC[C@H]2CCCN2)c1	none	none	none
Cl.Cn1nnnc1SCCNCC#Cc1ccccc1	none	none	none
OCCN(CCO)c1nc(N2CCCCC2)c2nc(N(CCO)CCO)nc(N3CCCCC3)c2n1	none	none	none
Cc1n[nH]c2c1C(c1ccc(Cl)cc1)C(C#N)=C(N)O2 (configuration not stated)	none	none	none
O=C1C[C@H]2CC[C@@H](CN1)N2Cc1cccc(OCCO)c1	none	none	none
O=C(NCCO)C(=O)NCc1ccccn1	none	none	none
COCc1cc(CN2CC[C@H]3CNC[C@H]32)ccc1OC	none	none	none
Sc1nc2ccc(Cl)cc2s1	none	none	none
N#Cc1ccccc1-c1ccc(CN2CCC(CN)C2)o1 (configuration not stated)	none	none	none
Nc1cccc(S(=O)(=O)N2CCCC2)c1	none	none	none
CC(=O)c1ccccc1OCC(O)Cn1c(C)nc2ccccc21 (configuration not stated)	none	none	none
Cc1nc2sc(C(=O)c3ccccc3)c(N)c2c(C)c1C	none	none	none
CC1(C)CC(=O)C2=C(C1)OC(N)=C(C#N)C2c1cccc(Oc2ccccc2)c1 (configuration not stated)	none	none	none
CCc1nc2nc(C)cc(Nc3ccc(C)c(F)c3)n2n1	none	none	none
CC(COc1ccccc1)N(CCCl)Cc1ccccc1 (configuration not stated)	none	none	none
CCc1cnnn1-c1nonc1N	none	none	none
CN(C)CCN(C)C[C@@H]1CN(C(=O)c2ccc(Cl)c(F)c2)C[C@@H]1CO	none	none	none
CC(C)=CCN1CCN(C(=O)CCc2n[nH]c(N)n2)[C@H]2CS(=O)(=O)C[C@H]21	none	none	none
C=CCn1c(N)cc(=O)nc1SCC(=O)Nc1ccc(Cl)cn1	none	none	none
CN(C)CCNc1cc(C(C)(C)C)nc2c(-c3ccc(Cl)cc3)cnn12	none	-	none
Cc1ccccc1Nc1c(-c2ccc(Br)cc2)nc2cnccn12	none	-	none
COCC(C)NCCNc1cccnc1 (configuration not stated)	none	none	none
O=C(NCCS(=O)(=O)N1CCCC1)C1NCCc2[nH]cnc21 (configuration not stated)	none	none	none

Some entries from above, unchanged:

* CCc1ccccc1C(=O)N1CCNCC1C(=O)N1CCCC1 (configuration not stated) : TPP: none; SAM-II: none; PreQ1: none
* COCC(C)NCCNc1cccnc1 (configuration not stated) : TPP: none; SAM-II: none; PreQ1: none
* CCc1cnnn1-c1nonc1N : TPP: none; SAM-II: none; PreQ1: none
* Cn1c(-c2ccc(F)cc2)cnc1NCc1ccccc1Cl : TPP: none; SAM-II: none; PreQ1: none